# In PubChem BioAssay AID1347076 (National Center for Advancing Translational Sciences (NCATS), 2019):
# Values joined by “and” are separate entries in the source; they are usually repeats but may differ in a detail not shown here. Equal entries are not always repeated. The whole screen tested about 400,000 compounds, of which about 13,000 (3.2%) were called active. The shares of active, inactive and inconclusive entries below differ from those in the screen. Calls follow the shape of the dose curve; as a rule, active = well fitted cell-killing curve with a large enough effect; inconclusive = small, poorly fitted or top-dose-only effect, or effect the other way; inactive = flat fitted curve, though single readings scatter. Where the call is inconclusive, the potency comes from a doubtful curve fit. Where a structure was tested more than once in an assay, its records may differ in their call.
# Assay: qHTS assay for MDR1-selective chemotherapeutics: Primary screen using the drug-selected MDR subline cells KB-V1; also: nearly all actives have a fitted effect of over 60% in size
# Settings: KB-V1 MDR cells viability, CellTiter-Glo, 72 h; activity change, negative = cytotoxicity: at 46.1 µM (top of the series)
# From the text: A prime difficulty in effectively treating cancer is the development of cellular resistance to multiple structurally unrelated anticancer drugs, a phenomenon known as multidrug resistance (MDR). […] Numerous strategies to overcome P-gp-mediated MDR have been explored, including the design of drugs that evade recognition and efflux, and development of inhibitors to block efflux and restore drug accumulation. […] An alternative approach is to exploit resistance by identifying drugs that target MDR cells over the non-resistant parental cells from which they were selected. […] The development of MDR1-selective agents represents a new strategy for resolving multidrug resistance, as it remains a long-standing clinical challenge for cancer chemotherapy.
# Our goal is to identify compounds that selectively kill P-gp-expressing MDR cells. We will identify MDR1-selective compounds by comparing toxicity of compounds in the screening library against parental, drug-naive (KB-3-1) adenocarcinoma cells as well as their drug-selected MDR sub-line (KB-V1). The differential toxicity of compounds against these two cell lines will be used to identify MDR1-selective compounds, whose cytotoxicity is potentiated, rather than diminished, by P-gp expression. This assay will be utilized to conduct a quantitative high-throughput screen (qHTS) in collaboration with the NIH Chemical Genomics Center to identify selective agents, and probe hits arising from the screen will be validated using secondary assays and characterized through a well-established follow-up research program. This screen was run against the entire NCGC library collection of about 400,000 compounds.
# NIH Molecular Libraries Probe Production Network [MLPCN]
# NIH Chemical Genomics Center [NCGC]
# PI: Michael Gottesman, National Cancer Institute, NIH
# Briefly, 5 microL of media containing either KB-V1 cells (columns 1-2, 4-48) are dispensed into Greiner white, treated solid-bottom 1536-well assay plates (media-only control is added to column 3). Compounds are then transferred via Kalypsys pin tool equipped with 1536-pin array (10 nL slotted pins, V&P Scientific, San Diego, CA). Following addition of compound, the plates are incubated at 37 degrees C for 72 hours. CellTiter-Glo (2.5 µL/well) is then added, and the plates are read in a ViewLux reader (Perkin-Elmer, clear luminescence filter, 1 second exposure, 1x binning) following a 10 minute incubation. All cells are dispensed in DMEM phenol-red free media containing 10% FBS.
# Library plates were screened starting from the lowest and proceeding to the highest concentration. Vehicle-only plates, with DMSO being pin-transferred to columns 5-48, will be inserted uniformly at the beginning and the end of each library in order to monitor and record any shifts in the background, which can be affected by reagent dispensers or loss in enzyme activity over time. Screening data will be corrected, normalized, and concentration-effect relationships will be derived by using publicly-available NCGC, NCATS curve fitting algorithms (http://ncgc.nih.gov/pub/openhts).
# % is scaled to controls: 0 for no effect and ±100 for the full control effect; potency is read from the fitted curve at half-maximal effect.
Structure (SMILES),Potency,"activity change, negative = cytotoxicity"
COc1cc(C(=S)N2CCN(c3cccc(Cl)c3)CC2)ccc1O,"inconclusive: 8.2 µM [cytotoxic, partial curve]",–
Clc1ccc(OCc2nnc3n2CCCCC3)c(Cl)c1,"inconclusive: 8.2 µM [cytotoxic, partial curve]",–
Cn1c(-[n+]2c(-c3ccccc3)cc(-c3ccccc3)cc2-c2ccccc2)nc2c([N+](=O)[O-])cccc21,"inconclusive: 29.1 µM [cytotoxic, single point]",–
Cn1cc(CN2CCCC(C(=O)c3ccc(-c4ccccc4)c(F)c3)C2)cn1 (stereo not drawn),"inconclusive: 20.6 µM [cytotoxic, single point]",–
CCn1c(CCNC(=O)c2ccc(Cl)c(Cl)c2)nnc1SCCOc1ccc(OC)cc1,active: 5.8 µM,–
Cc1cc(O)c(-c2cc(C(=O)Nc3ccc(S(=O)(=O)N4CCOCC4)cc3)[nH]n2)cc1C,"inconclusive: 7.31 µM [cytotoxic, full curve]",–
CCCCn1ccnc1C(=O)c1ccc(S(=O)(=O)N(CCOC)CCOC)cc1,"inconclusive: 23.1 µM [cytotoxic, single point]",–
CC(C)Cn1c(=O)c(C(=O)NCc2ccc3c(c2)OCO3)c(O)c2ccccc21,"inconclusive: 18.4 µM [cytotoxic, single point]",–
CSc1ccc(CCNC(=O)c2ccc(CS(=O)Cc3ccccc3Cl)o2)cc1 (stereo not drawn),"inconclusive: 8.2 µM [cytotoxic, partial curve]",–
CCCCC(O)(CCCC)C(=O)NN(C(=O)CCl)c1ccccc1,"inconclusive: 29.1 µM [cytotoxic, single point]",–
CCn1c(=NC(=O)CS(=O)(=O)c2ccccc2)sc2cccc(OC)c21,"inconclusive: 14.6 µM [cytotoxic, partial curve]",–
CCN(CC(=O)NC1CCS(=O)(=O)C1)S(=O)(=O)c1ccc(Cl)cc1C(F)(F)F (stereo not drawn),–,inactive: -0.0427%
CCOC(=O)Cn1c(=O)n(-c2ccccc2OC)c2nc(-c3ccccc3F)nc(C(N)=O)c21,"inconclusive: 6.51 µM [cytotoxic, partial curve, poor fit]",–
CCCC(C)C(=O)N(Cc1ccccc1)c1ccccn1 (stereo not drawn),"inconclusive: 18.4 µM [cytotoxic, single point]",–
O=C(N=C1SC2CS(=O)(=O)CC2N1Cc1ccc(Cl)cc1)C1CC1 (stereo not drawn),–,inactive: -21.1%
Cc1nc2c(OCc3cccc(Cl)c3)cccn2c1N(C)CC1CC1,"inconclusive: 29.1 µM [cytotoxic, single point]",–
O=c1c(-c2nnc(SCc3ccc(Cl)c(Cl)c3)o2)cccn1Cc1ccccc1,"inconclusive: 29.1 µM [cytotoxic, single point]",–
CCc1ccc(-c2cc(C(F)(F)F)n3nc(C(=O)Nc4c(C)nn(Cc5ccccc5Cl)c4C)cc3n2)s1,"inconclusive: 29.1 µM [cytotoxic, single point]",–
COc1cccc(CN2C(=O)C3(SCC(=O)N3c3ccc(C(C)C)cc3)c3ccccc32)c1 (stereo not drawn),active: 18.4 µM,–
O=C(C=Cc1ccccn1)c1ccccc1,–,inactive: -15.9%
COc1ccccc1-n1c(SCc2cc(=O)oc3cc(O)ccc23)nc2ccccc2c1=O,active: 18.4 µM,–
CCCCCCSc1cc(-c2nc3cc(C)ccn3c2NCCCC)ccc1OC,active: 20.6 µM,–
CCCS(=O)(=O)NC(=O)C1(C)CCN(C(=O)COc2ccc(Cl)cc2Cl)C1 (stereo not drawn),–,inactive: 19.1%

Structure (SMILES),Potency,"activity change, negative = cytotoxicity"
COc1ccc(N2CCN(C(=O)CSc3ccc(C)cc3)CC2)cc1,"inconclusive: 13 µM [cytotoxic, partial curve, poor fit]",–
O=C(Nc1ccc(Cl)cc1C(=O)c1ccccn1)c1ccccc1,"inconclusive: 14.6 µM [cytotoxic, single point]",–
COc1ccc(N(CC(=O)Nc2cc(Cl)ccc2C)S(=O)(=O)c2c(C)noc2C)cc1,"inconclusive: 5.8 µM [cytotoxic, partial curve, poor fit] and inconclusive: 16.4 µM [cytotoxic, single point]",–
CCn1c(=O)c(=O)[nH]c2cc(C(=O)NC3CCCc4ccccc43)ccc21 (stereo not drawn),–,inactive: -1.41%
Cc1ccc(Oc2cnn(-c3ccccc3)c(=O)c2Br)cc1,"inconclusive: 20.6 µM [cytotoxic, single point]",–
Cc1cc(-c2cc(-c3ccccc3)on2)nc(NCC2CC2)n1,"inconclusive: 23.1 µM [rising, single point]",–
Nc1nc(N)c2c(n1)CCCC2,–,inactive: 4.97%
Cc1ccccc1-c1nc(SCC(=O)NCC2CCCO2)c2c(=O)n(C)c(=O)n(C)c2n1 (stereo not drawn),–,inactive: 2.52%
NC(=O)c1c(NC(=O)c2cccs2)sc2c1CCCCCC2,"inconclusive: 20.6 µM [cytotoxic, single point]",–
CN(C)S(=O)(=O)c1ccc(C(=O)NCc2nnc(SCC(=O)N3CCCCCC3)o2)cc1,–,inactive: 12.9%
CCC(=O)N(CCC1(C(C)C)CCOC(C)(C)C1)Cc1ccco1 (stereo not drawn),–,inactive: -0.0295%
OC[C@@H]1CCCN1Cc1cn(-c2ccccc2)nc1-c1ccc2c(c1)OCO2,"inconclusive: 1.3 µM [cytotoxic, partial curve, poor fit]",–
N#Cc1nccnc1S(=O)(=O)c1cccs1,–,inactive: 1.22%
COc1ccccc1Cc1nc2ccccc2n1S(=O)(=O)c1ccc(Cl)cc1,"inconclusive: 18.4 µM [cytotoxic, partial curve, poor fit]",–
CCCCCCCCn1cnc2c(N)c(C)c(C)cc21,"inconclusive: 29.1 µM [cytotoxic, single point]",–
COc1ccc(NC(=O)NC23CC4(C)CC(C)(CC(C)(C4)C2)C3)cc1OC,–,inactive: -1.23%
O=C(O)/C=C/C(=O)Nc1ccc(OC(F)F)cc1,"inconclusive: 32.6 µM [rising, partial curve, poor fit]",–
CCOC(=O)N1CCN(C(=O)CN(C)S(=O)(=O)c2ccc(Cl)cc2)CC1,"inconclusive: 23.1 µM [cytotoxic, partial curve, poor fit]",–
Cc1ccc2c(CSc3nnc4ccccn34)cc(=O)oc2c1C,active: 16.4 µM,–
O=C(N/N=C/C=C/c1ccccc1)c1cc2c(ccc3ccccc32)o1,"inconclusive: 13 µM [cytotoxic, single point]",–
Cc1ccc(C)c(OCCC(=O)OCC(=O)NC(=O)NC2CCCCC2)c1,"inconclusive: 20.6 µM [rising, partial curve, poor fit]",–
COc1ccc(-c2noc(-c3ccc(NC4CCCCC4)c([N+](=O)[O-])c3)n2)cc1,"inconclusive: 29.1 µM [rising, single point]",–
O=C(c1ccco1)N1CCN(CC(O)COc2ccc3oc4ccccc4c3c2)CC1 (stereo not drawn),"inconclusive: 20.6 µM [cytotoxic, partial curve]",–

# Quoted at random: four records from the list
Structure (SMILES),Potency,"activity change, negative = cytotoxicity"
CCn1c(=O)c(=O)[nH]c2cc(C(=O)NC3CCCc4ccccc43)ccc21 (stereo not drawn),–,inactive: -1.41%
CCn1c(=NC(=O)CS(=O)(=O)c2ccccc2)sc2cccc(OC)c21,"inconclusive: 14.6 µM [cytotoxic, partial curve]",–
COc1cc(C(=S)N2CCN(c3cccc(Cl)c3)CC2)ccc1O,"inconclusive: 8.2 µM [cytotoxic, partial curve]",–
CCCS(=O)(=O)NC(=O)C1(C)CCN(C(=O)COc2ccc(Cl)cc2Cl)C1 (stereo not drawn),–,inactive: 19.1%

# Next results follow:

Structure (SMILES),Potency,"activity change, negative = cytotoxicity"
CC(C)Cc1nnc(NC(=O)CCC(=O)N2CCN(Cc3ccccc3)CC2)s1,–,inactive: -2.77%
CCOC(=O)C1CCCN(C/C=C/c2ccccc2)C1 (stereo not drawn),"inconclusive: 14.6 µM [rising, single point]",–
COc1ccc(CCNC(=O)CC2SC(N)=NC2=O)cc1OC (stereo not drawn),–,inactive: 17.3%
CCn1c2ccccc2c2cc(NC(=O)CSc3nnc(-c4cccc(C)c4)o3)ccc21,"inconclusive: 29.1 µM [cytotoxic, single point]",–
COc1cccc(NC2=NC3(CCCCC3)N=C(N)N2)c1,–,inactive: 12.8%
COc1nc(-c2ccc(Cl)cc2)ccc1-c1noc(-c2cccs2)n1,"inconclusive: 32.6 µM [cytotoxic, partial curve, poor fit]",–
COc1cccc(NC(=O)c2ccc3[nH]c(C)cc(=O)c3c2)c1,"inconclusive: 20.6 µM [rising, single point]",–
COc1ccc(CCNC(=O)C2CC(c3cc(C(F)(F)F)cc(C(F)(F)F)c3)=NO2)cc1 (stereo not drawn),"inconclusive: 29.1 µM [rising, single point]",–
Cc1ccc(C(=O)/C=C/NCc2ccc(F)cc2)cc1,"inconclusive: 16.4 µM [cytotoxic, single point]",–
COC(=O)/C=C1\SC(=Nc2ccc(OC)cc2)NC1=O,–,inactive: -11.5%
CC(Sc1nnc(N)s1)C(=O)Nc1nccs1 (stereo not drawn),"inconclusive: 20.6 µM [rising, single point]",–
Cc1ccc(CS(=O)Cc2ccc(C(=O)NCCCc3ccccc3)o2)cc1 (stereo not drawn),"inconclusive: 18.4 µM [cytotoxic, single point]",–
Nc1nnc(SCC(=O)Nc2ccc(N3CCOCC3)c(Cl)c2)s1,–,inactive: -23.3%
Cc1ccnc(NS(=O)(=O)c2ccc(NC(=O)c3ccc(S(=O)(=O)N(C)C)cc3)cc2)n1,"inconclusive: 5.17 µM [rising, full curve, poor fit]",–
O=S1(=O)N=C(Oc2ccccc2-c2ccccc2)c2ccccc21,"inconclusive: 29.1 µM [rising, single point]",–
O=C(Nc1cccc(C(=O)N2CCCCCC2)c1)c1ccco1,"inconclusive: 9.2 µM [cytotoxic, partial curve]",–
COc1ccc(-n2nnnc2SCC(=O)Nc2ccc3c(c2)OCCO3)c(OC)c1,–,inactive: -23.5%
CCCc1cc(=O)oc2cc(C)c3c(C(C)(C)C)coc3c12,"inconclusive: 29.1 µM [rising, single point]",–
CCOc1ccc(CCNC(=O)CSc2nn(-c3ccc(C)c(Cl)c3)c(=S)s2)cc1OCC,active: 6.51 µM,–
C=CCN(N=Nc1cccc([N+](=O)[O-])c1)c1cccc([N+](=O)[O-])c1,"inconclusive: 16.4 µM [cytotoxic, single point]",–
Cc1ccc(C)c(CSc2nnc([C@@H](N)C(C)C)o2)c1,active: 14.6 µM,–
Cc1ccc(S(=O)(=O)N2[C@H](CC(=O)c3ccc(F)cc3)OC[C@@H]2C(C)C)cc1,"inconclusive: 18.4 µM [cytotoxic, partial curve]",–
